Patent US20200247886A1
Residue numbers refer to the chain shown, from its start. No constants are given. Whether binding was seen depends on the method and setting. Some results given as binding are weak or reduced against the parent protein; the word gives no strength.

By UniProt entry, the sequences of proteins in these tests, tags left out. Where a name states a change or a piece, a line headed by the entry shows the natural chain unless it says otherwise.
UniProt Q08722: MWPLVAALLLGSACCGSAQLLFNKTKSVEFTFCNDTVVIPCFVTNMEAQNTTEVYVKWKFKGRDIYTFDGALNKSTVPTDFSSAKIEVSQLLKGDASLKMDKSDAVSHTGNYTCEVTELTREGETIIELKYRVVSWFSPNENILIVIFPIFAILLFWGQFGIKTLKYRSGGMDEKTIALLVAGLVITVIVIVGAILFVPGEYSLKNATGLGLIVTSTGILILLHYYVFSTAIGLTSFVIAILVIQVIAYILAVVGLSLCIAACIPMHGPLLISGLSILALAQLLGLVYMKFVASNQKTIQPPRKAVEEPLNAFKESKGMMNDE

B1: H-ABU 7 (antibody, V domains shown)
VH: QVQLVQSGAEVKKPGASVKVSCKASGYTFTDHYINWVRQAPGQRLEWMGWIYLGSGNTKYNEKFKGRVTITRDTSASTAYMELSSLRSEDTAVYYCARREDRGFAYWGQGTLVTVSS
VL: DIVMTQSPDSLAVSLGERATINCKSSQSLLSSSQKNYLAWYQQKPGQPPKLLIYWASVRDSGVPDRFSGSGSGTDFTLTISSLQAEDVAVYYCQQYYSYPLTFGQGTKVEIK
B2: H-ABU 10 (antibody, V domains shown)
VL: B1 VL with L30V
VH: B1 VH with H32N, D101E, Y106P
B3: H-ABU 11 (antibody, V domains shown)
VH: B1 VH with H32F, D101E
VL: B1 VL with V58T, Y96F
B4: H-ABU 41 (antibody, V domains shown)
VL: DVQITQSPSSLSASVGDRVTITCRASKNIGKYLAWFQQKPGKTNKLLIYSGSTLQSGIPSRFSGSGSGTDFTLTISSLQPEDFATYYCQQHNEYPYTFGGGTKVEIK
VH: QVQLQQSGAEVKKPGASVKVSCKTSGYSFTNYWMQWVRQAPGQGLEWIGMIDPSDSESRLNQKFKDKATLTVDKSTSTAYMELSSLRSEDTAVYYCARRGSPMITSFAYWGQGTLVTVSS
B5: H-ABU 43 (antibody, V domains shown)
VH: B4 VH with Q5V, I48M, K67R, A68V, L70M, V72R, K74T
VL: B4 VL
B6: H-ABU 4 (antibody, V domains shown)
VH: B1 VH with H32I, T58V
VL: B1 VL with S33N, N36Y, V58T, Y96F
B7: H-ABU 6 (antibody, V domains shown)
VH: B1 VH with H32F, D101E
VL: B1 VL with S33N, Y96F
B8: H-ABU 37 (antibody, V domains shown)
VH: B4 VH with Q5V, T24A, S28T, I48M, K67R, A68V, L70M, V72R, K74T, A79V
VL: B4 VL
B9: H-ABU 38 (antibody, V domains shown)
VH: B4 VH with Q5V, T24A, S28T, K67R, K74T, A79V
VL: B4 VL
B10: H-ABU 39 (antibody, V domains shown)
VH: B4 VH with Q5V, K67R, K74T
VL: B4 VL
B11: H-ABU 40 (antibody, V domains shown)
VH: B4 VH
VL: B4 VL with T43A, N44P, L46S, I58V
B12: C-ABU2 (antibody, V domains shown)
VH: QVQLQQPGAELVRPGASVKLSCKASGYTFTNYWMNWFKQRPEQGLEWIGRIDPYDSETLYNQKFKDKAILTVDKSSSTAYMQLSSLTSEDSAVYYCAGGGKGGFGYWGQGTLVTVSA
VL: DVLMTQTPLSLPVSLGDQASISCRSSQSIVYSNGNTYLEWYLQKPGQSPKLLIYKVSNRFSGVPDRFSGSGSGTDFTLKISRVEAEDLGVYYCFQGSHVPYTFGGGTKLEIK
B13: C-ABU4 (antibody, human IgG4 S228P, kappa, V domains shown)
VH: QVQLQQSGPQLVRPGASVKISCKTSGYSFTNYWMQWVKQRPGQGLEWIGMIDPSDSESRLNQKFKDKATLTVDKSSSTAYMQLSSPTFEDSAVYYCARRGSPMITSFAYWGQGTLVTVSA
VL: DVQITQSPSFLAASPGETITINCRASKNIGKYLAWFQEKPGKTNKLLIYSGSTLQSGIPSRFSGSGSGTDFTLTISSLEPEDFAIYYCQQHNEYPYTFGGGTKLEIKR
B14: ABU11 (Fab) (Fab, V domains shown)
VH: EVQLQQPGAELVRPGSSVKLSCKASGYSFTTYWMHWVKQRPGQGLEWIGNINPSSGDSHYNEKFKSKATLTVDKSSSTAYLQLNSLTSEDSAVYYCARDYYGAYWGHGTLVTVSA
VL: DIQMTQSPASLSASVGETVTITCRASENVYSYLAWYQQKQGKSPQLLVYKANTLAEGVPSRFSGSGSGTQFSLKINSLQPEDFGTYYCQHHYGTPLTFGSGTKLEIK
B15: ABU20 (Fab) (Fab, V domains shown)
VH: RGKVQESGPGLVKPSQSLSLTCSVTGYSITSGYYWNWIRQFPGNKLEWMGYINYDGSNNYNPSLKNRISITRDTSKNQFFLKLNSVTTEDTATYYCARGYYYGSSYGYWYFDVWGTGTTVTVSS
VL: DAVVTQESALTTSPGETVTLTCRSSTGAVTTNNYANWVQEKPDHLFTGLIGGTNNRAPGVPARFSGSLIGDKAALTITGAQTEDEAIYFCALWYSNHLVFGGGTKLTVL

What follows are binders tested against human CD47 expressed on cells (CD47 expressing CHO cells, Jurkat, HL60, DLD1, Raji) (human) (UniProt Q08722) (assay: flow cytometry on human red blood cells, donor 2, MFI).

binding, binds:
B1, B2, B3, B4, B5

What follows are binders tested against human CD47 expressed on cells (CD47 expressing CHO cells, Jurkat, HL60, DLD1, Raji) (human) (UniProt Q08722) (assay: flow cytometry on human platelets, donor 1, MFI).

binding, binds:
B1, B2, B3, B4, B5

The binders below were run against human CD47 expressed on cells (CD47 expressing CHO cells, Jurkat, HL60, DLD1, Raji) (human) (UniProt Q08722) (assay: flow cytometry on human platelets, donor 2, MFI).

binding, binds:
B1, B2, B3, B4, B5

These binders were tested against human CD47 expressed on cells (CD47 expressing CHO cells, Jurkat, HL60, DLD1, Raji) (human) (UniProt Q08722) (assay: flow cytometry blocking assay on Raji cells, SIRPα is the blocked ligand, MFI).

binding, binds:
B6, B7, B1, B2, B3

Each binder was assayed against human CD47 expressed on cells (CD47 expressing CHO cells, Jurkat, HL60, DLD1, Raji) (human) (UniProt Q08722) (assay: flow cytometry SIRP-alpha blocking assay on Raji cells, MFI).

binding, binds:
B8, B9, B10, B11, B4, B5

Each binder was assayed against human CD47 expressed on cells (CD47 expressing CHO cells, Jurkat, HL60, DLD1, Raji) (human) (UniProt Q08722) (assay: flow cytometry on CD47 expressing CHO cells, MFI (FL-4)).

binding, binds:
B12, B13

Each binder was assayed against human CD47 expressed on cells (CD47 expressing CHO cells, Jurkat, HL60, DLD1, Raji) (human) (UniProt Q08722) (assay: flow cytometry on human red blood cells, donor 1, MFI).

binding, binds:
B1, B2, B3, B4, B5

The binders below were run against human CD47 expressed on cells (CD47 expressing CHO cells, Jurkat, HL60, DLD1, Raji) (human) (UniProt Q08722) (assay: IC50 (nM) as grade, SIRP-alpha blocking on Raji cells; legend +: <0.6 nM).

binding, binds:
B8, B9, B10, B11, B4, B5

Each binder was assayed against human CD47 expressed on cells (CD47 expressing CHO cells, Jurkat, HL60, DLD1, Raji) (human) (UniProt Q08722) (assay: flow cytometry on DLD1 cells, Fab, frequency).

binding, binds:
B14, B15
